Results published in US20200331998A1.
No constants are given. Whether binding was seen depends on the method and setting. Some entries that bind do so weakly or less than the wild type.

What was measured:
[1] = target: UCART19 CAR (anti-CD19 chimeric antigen receptor with a 4G7-derived scFv, on UCART19 cells); experiment: flow cytometry on UCART19 cells
[2] = target: UCART19 CAR (anti-CD19 chimeric antigen receptor with a 4G7-derived scFv, on UCART19 cells); experiment: flow cytometry titration of the antibody on UCART19 cells, signal-to-noise against ug/test, upper graph
[3] = target: UCART19 CAR (anti-CD19 chimeric antigen receptor with a 4G7-derived scFv, on UCART19 cells); experiment: flow cytometry blocking assay: fresh UCART19 cells pre-incubated with unconjugated antibody, then stained with labelled soluble CD19-hFc; blocked ligand: m14
[4] = target: UCART19 CAR (anti-CD19 chimeric antigen receptor with a 4G7-derived scFv, on UCART19 cells); experiment: flow cytometry titration of APC-conjugated A8 on UCART19 cells, signal-to-noise against ug/test, lower graph
[5] = target: UCART19 CAR (anti-CD19 chimeric antigen receptor with a 4G7-derived scFv, on UCART19 cells); experiment: flow cytometry titration of PE-conjugated A8 on UCART19 cells, signal-to-noise against ug/test, lower graph
[6] = target: UCART19 CAR (anti-CD19 chimeric antigen receptor with a 4G7-derived scFv, on UCART19 cells); experiment: flow cytometry, PE signal, UCART19 cells spiked into blood or in PBS
m4G7-scFv-Fc = experiment: SPR (Biacore, 25° C.) binding check, m4G7-scFv-Fc at 100 nM
[7] = target: UCART19 CAR (anti-CD19 chimeric antigen receptor with a 4G7-derived scFv, on UCART19 cells); experiment: flow cytometry on primary human T cells expressing UCART19

Measured: binding

B1: E2153.2H8.A8 (antibody, V domains shown)
VH: QVQLQQSGAELVKPGASVKVSCKAFGYTFTTYPIEWMRQNHGKSLEWIGNFHPYNDDTRYNEKFKDKAKLTVEKSSSTVYLELSRLTYDDSAVYYCTRGNDYDLYGMDYWGQGTSVTVSS
VL: DIKMTQSPSSMYASLGERVTITCKASQDINTYLTWFQQKPGKSPKTLIYRANRLVDGVPSRFSGSGSGQDYSLTISSLEYEDMGIYYCLQCDDFPLTFGAGTKLELKR
binds: [1] | [2] | [3] | [4] | [5] | [6] | m4G7-scFv-Fc | [7]

B2: E2153.1D9.B4 (antibody, V domains shown)
VH: QVQLQQSGAELVRPGTSVKVSCKASGYAFTNYLIEWIKQRPGQGLEWIGVINPGSGGINYNEKFKGKATLTSDKSSSTAYMQLSSLTSDDSAVYFCARWLDYDWFAYWGQGTLVTVSA
VL: DIKMTQFPSSMYASVGERVTITCKASQDINSYLSWFQQKPGKSPKTLIYRANRLVDGVPSRFSGSGSGQDYSLTISSLEYEDMGIYYCLQCDEFPFTFGGGTKLEIK
binds: [2] | m4G7-scFv-Fc | [7]

B3: E2153.1C4.E2 (antibody, V domains shown)
VH: QVQLQQSGAELVKPGASVKVSCKAFGYTFTTYPIEWMRQNHGKSLEWIGNFHPYNDDTRYNEKFKDKAKLTVEKSSSTVYLELSRLTYDDSAVYYCTRGNDYDLYGMDYWGQGTSVTVSS
VL: DIKMTQFPSSMYASLGERVTITCKASQDINTYLTWFQQKPGKSPKTLIYRANRLVDGVPSRFSGSGSGQDYSLTISSLEYEDMGIYYCLQCDDFPLTFGAGTKLELK
binds: [2] | m4G7-scFv-Fc | [7]

B4: E2153.4D7.E11 (antibody, V domains shown)
VH: QVQLQQSGAELVRPGTSVKVSCKASGYAFTNYLIEWVKQRPGQGLEWIGVITPGSGGSNYNEKFKGKATLTADKSSSTAYMQLSSLTSDDSAVYFCARWLDYDWFAYWGQGTLVTVSA
VL: DIKMTQSPSSMYASLGERVTITCKASQDINSYLSWFQQKPGKSPKTLIYRANRLVDGVPSRFSGSGSGQDYSLTISSLEYEDMGIYYCRQCDEFPSTFGGGTKLEIK
binds: [2] | [6] | m4G7-scFv-Fc | [7]
